Laboratory results: the supplement of paper PMC12578635
± gives the standard deviation of the averaged measurements. The list shows a part of the results. Single values are uncertain, as repeats are few or missing.

System: RAW 264.7 macrophages infected with S. aureus JE2-lux
Experiment: host macrophage viability (CellTiter-Fluor) relative to DMSO vehicle; higher = more viable host cells
Settings: 10 µM; treatment time 4 h; gentamicin 50 µg/ml

Question: How did the host macrophage viability turn out when Cc1ccc(C)c(CSc2nc(=O)n3cc(Cl)ccc3n2)c1 was run?
Answer: The host macrophage viability was 110%.

Question: For CCC(=O)Nc1ccc2nc(SCc3cc(=O)n4nc(-c5ccccc5)[nH]c4n3)sc2c1, which host macrophage viability is on record?
Answer: Its host macrophage viability is 127%.

Question: With CCc1cc2c(N(CC)c3ccccc3)ncnc2s1 as the compound, how does the host macrophage viability read?
Answer: The host macrophage viability was 140%.

Question: With O=C(CCCS(=O)(=O)c1ccccc1)Nc1nc2c(cc3c4c(cccc42)CC3)s1 as the compound, how does the host macrophage viability read?
Answer: The host macrophage viability was 86.6%.

Question: For O=C(Nn1cnc2c(cnn2-c2ccccc2)c1=O)c1ccc(F)c(F)c1, which host macrophage viability is on record?
Answer: Its host macrophage viability is 124%.

Question: With Cc1ccc(NS(=O)(=O)c2cc(-c3cc(C(F)(F)F)on3)cs2)c(Br)c1 as the compound, how does the host macrophage viability read?
Answer: The host macrophage viability was 122%.

Question: Which host macrophage viability does the source give for Cc1ccc(CNC(=O)c2cc(-c3ccccn3)[nH]n2)cc1 here?
Answer: Its host macrophage viability is 122%.

Question: How did the host macrophage viability turn out when CCOc1ccc(NC=C(S(=O)(=O)c2ccccc2)S(=O)(=O)c2ccccc2)c([N+](=O)[O-])c1 was run?
Answer: The host macrophage viability was 99.3%.

Question: With CCS(=O)(=O)Nc1cccc(C(=O)CC2(O)C(=O)Nc3ccc(Br)cc32)c1 (stereo not given) as the compound, how does the host macrophage viability read?
Answer: Its host macrophage viability is 109%.

Question: Cn1ccnc1CNS(=O)(=O)c1ccc2c(c1)c(=O)n(C)c(=O)n2C was tested. Which host macrophage viability did it give?
Answer: Its host macrophage viability is 114%.

Question: How did the host macrophage viability turn out when Cc1ccc(C(=O)N2CCC(O)CC2)c(N2CCN(C(=O)c3ccco3)CC2)n1 was run?
Answer: Its host macrophage viability is 106%.

Question: With COc1cccc(NC(=O)N(Cc2cc3cccc(C)c3nc2Cl)C2CCCCC2)c1 as the compound, how does the host macrophage viability read?
Answer: The host macrophage viability was 119%.

Question: How did the host macrophage viability turn out when CCN(C(=O)CCc1nc(-c2nn(-c3ccc(Cl)cc3)c(=O)n(C)c2=O)no1)c1ccccc1C was run?
Answer: The host macrophage viability was 107%.

Question: Nc1ncnc(N2CCc3ccccc32)c1[N+](=O)[O-] was tested. Which host macrophage viability did it give?
Answer: Its host macrophage viability is 102%.

Question: Which host macrophage viability does the source give for COc1ccc(-c2nsc3c(SCC(=O)NCc4cccs4)ncnc23)cc1 here?
Answer: Its host macrophage viability is 146%.

Question: With CCOc1ccc(Nc2nc3c(C)cccn3c(=O)c2C=O)cc1 as the compound, how does the host macrophage viability read?
Answer: Its host macrophage viability is 115%.

Question: Which host macrophage viability does the source give for CCCN1CCN(c2ncnc3sc(C(=O)NCc4ccc5c(c4)OCO5)c(C)c23)CC1 here?
Answer: Its host macrophage viability is 122%.

Question: How did the host macrophage viability turn out when CSC1=C(C#N)C2(CCCCC2)C(c2nc(-c3ccc(C)cc3)cs2)C(=N)N1 (stereo not given) was run?
Answer: Its host macrophage viability is 111%.

Question: Which host macrophage viability does the source give for Cn1cnc(S(=O)(=O)N2CCC(c3nnc(C(=O)Nc4ccccc4)s3)CC2)c1 here?
Answer: Its host macrophage viability is 123%.

Question: With O=C(CCCC1=Nc2ccccc2S(=O)(=O)N1)OCc1ccc(F)cc1 as the compound, how does the host macrophage viability read?
Answer: Its host macrophage viability is 97.3%.

Question: How did the host macrophage viability turn out when O=C(CSc1nc(=O)[nH]c2c1CCC2)N1CCCC1 was run?
Answer: The host macrophage viability was 121%.

Question: O=c1[nH]cc(S(=O)(=O)N2CCN(Cc3ccccc3)CC2)c(=O)[nH]1 was tested. Which host macrophage viability did it give?
Answer: The host macrophage viability was 112%.

Question: Which host macrophage viability does the source give for CCOC(=O)c1cnc(SCC(=O)NNC(C)=O)nc1N here?
Answer: Its host macrophage viability is 116%.

Question: With Cc1ccc(-c2csc(-c3cccn3CC(=O)NCc3cccc(Br)c3)n2)cc1 as the compound, how does the host macrophage viability read?
Answer: Its host macrophage viability is 112%.

Question: COc1cc(CSc2nc(=O)n3cc(C)ccc3n2)cc(OC)c1 was tested. Which host macrophage viability did it give?
Answer: Its host macrophage viability is 131%.

Question: For COc1cccc2c(=O)n(CC(=O)NCc3ccc(F)cc3)ccc12, which host macrophage viability is on record?
Answer: Its host macrophage viability is 116%.

Question: C=CCn1/c(=N/C(=O)CN2C(=O)CCC2=O)sc2cc(C(=O)OC)ccc21 was tested. Which host macrophage viability did it give?
Answer: The host macrophage viability was 108%.

Question: COc1ccc(C2CC(c3cccs3)=NN2C(=O)Cn2cnc3c(cnn3CCO)c2=O)cc1 (stereo not given) was tested. Which host macrophage viability did it give?
Answer: Its host macrophage viability is 120%.

Question: With Cc1cccc(NC(=O)CSc2ncc(S(=O)(=O)c3ccc(C)c(C)c3)c(N)n2)c1 as the compound, how does the host macrophage viability read?
Answer: Its host macrophage viability is 122%.

Question: With Cn1c(=O)c2c(SCC(=O)NCc3ccc4c(c3)OCO4)ccnc2n(C)c1=O as the compound, how does the host macrophage viability read?
Answer: The host macrophage viability was 131%.

Question: With Brc1cccc2sc(N3CCc4ccccc4C3)nc12 as the compound, how does the host macrophage viability read?
Answer: Its host macrophage viability is 98.3 ± 5.2%.

Question: Cc1ccnc(N2CCCC(C(=O)Nc3ccccc3-c3ccccc3)C2)n1 (stereo not given) was tested. Which host macrophage viability did it give?
Answer: The host macrophage viability was 118%.

Question: Which host macrophage viability does the source give for CCOc1ccc(-c2noc(Cn3ncn4nc(-c5ccc(OC)cc5)cc4c3=O)n2)cc1OC here?
Answer: The host macrophage viability was 102%.

Question: For Cc1cccc(S(=O)(=O)NCCOc2ccc(-c3ccc(F)cc3)nn2)c1, which host macrophage viability is on record?
Answer: The host macrophage viability was 101%.

Question: For CCN1C(=O)c2cccc3c(NC(=O)CN4C(=O)c5ccccc5C4=O)ccc1c23, which host macrophage viability is on record?
Answer: The host macrophage viability was 114%.

Question: Which host macrophage viability does the source give for Cc1ccc(-n2ncc3c(SCC(=O)Nc4nnc(C)s4)ncnc32)c(C)c1 here?
Answer: Its host macrophage viability is 99.1%.

Question: How did the host macrophage viability turn out when Cc1cc(C)cc(NS(=O)(=O)c2c[nH]c(=O)[nH]c2=O)c1 was run?
Answer: The host macrophage viability was 119%.

Question: Which host macrophage viability does the source give for COc1ccc(NC(=S)N2CCC(n3cnc4ccccc43)CC2)c(OC)c1 here?
Answer: The host macrophage viability was 112%.

Question: Which host macrophage viability does the source give for O=C(O)CCN1C(=O)/C(=C/c2cc([N+](=O)[O-])ccc2OCc2ccccc2Cl)SC1=S here?
Answer: The host macrophage viability was 108%.

Question: O=C(Nc1cc(Cl)cc(Cl)c1)c1ccc(S(=O)(=O)N2CCCCCC2)cc1 was tested. Which host macrophage viability did it give?
Answer: Its host macrophage viability is 88.9%.

Question: O=C(NCc1ccc2[nH]c3c(c2c1)CCCC3)NC1CCCCC1 was tested. Which host macrophage viability did it give?
Answer: The host macrophage viability was 144 ± 37%.

Question: With COc1cccc(NC(=O)CSc2nnc3ccccn23)c1 as the compound, how does the host macrophage viability read?
Answer: Its host macrophage viability is 104%.

Question: COc1ccc(CCNC(=O)CSc2nc3sc4c(c3c(=O)[nH]2)CCC4)cc1OC was tested. Which host macrophage viability did it give?
Answer: The host macrophage viability was 127%.

Question: How did the host macrophage viability turn out when CCn1cccc1-c1nc(C)c(C(=O)Nc2cc(C)cc(C)c2)s1 was run?
Answer: The host macrophage viability was 111%.

Question: With COC(=O)c1cccc(Oc2nnc(-c3ccc(F)cc3)c3ccccc23)c1 as the compound, how does the host macrophage viability read?
Answer: The host macrophage viability was 117 ± 12%.

Question: How did the host macrophage viability turn out when CCOc1ccc2[nH]c(=O)c(CN(Cc3cccnc3)C(=O)Nc3ccccc3F)cc2c1 was run?
Answer: Its host macrophage viability is 124%.

Question: With Fc1ccc(-c2csc3ncnc(NCC4CCCO4)c23)cc1 (stereo not given) as the compound, how does the host macrophage viability read?
Answer: The host macrophage viability was 149%.

Question: Which host macrophage viability does the source give for C=CCn1/c(=N/C(=O)CSCC(=O)N2CCN(C(=O)OCC)CC2)sc2cc(Cl)ccc21 here?
Answer: The host macrophage viability was 120%.

Question: Which host macrophage viability does the source give for Cc1c(-c2n[nH]c(=S)n2C)sc2nc3n(c(=O)c12)CCC3 here?
Answer: Its host macrophage viability is 120%.

Question: How did the host macrophage viability turn out when Cc1nc2sc(C(c3cccs3)N3CCN(CCO)CC3)c(O)n2n1 (stereo not given) was run?
Answer: Its host macrophage viability is 102 ± 2.3%.

Question: With CCn1nc(C)c(C(=O)NCCn2nc3c(C)cc4ccc(C)cc4n3c2=O)c1C as the compound, how does the host macrophage viability read?
Answer: Its host macrophage viability is 115%.

Question: With COc1ccc(NC(=O)CSc2nc(=O)n(CCN3CCOCC3)c3c2CCC3)cc1OC as the compound, how does the host macrophage viability read?
Answer: The host macrophage viability was 130%.

Question: With COc1cc(C)c(S(=O)(=O)Nc2cccc(-n3c(C)nc4ccccc4c3=O)c2)cc1C as the compound, how does the host macrophage viability read?
Answer: Its host macrophage viability is 120%.

Question: How did the host macrophage viability turn out when CC(C)N1C(=O)/C(=C2/C(=O)N(CC(=O)Nc3ccccc3F)c3ccccc32)SC1=S was run?
Answer: Its host macrophage viability is 101%.

Question: CC(=O)NNC(=O)CSc1nc2sc3c(c2c(=O)[nH]1)CCC(C(C)(C)C)C3 (stereo not given) was tested. Which host macrophage viability did it give?
Answer: Its host macrophage viability is 83%.

Question: With CCOc1ccc(OCC)c(NS(=O)(=O)c2ccc3onc(C(=O)N4CCCC4)c3c2)c1 as the compound, how does the host macrophage viability read?
Answer: Its host macrophage viability is 105%.

Question: Which host macrophage viability does the source give for COc1cccc(-c2csc(/C(C#N)=C\Nc3ccc([N+](=O)[O-])cc3)n2)c1 here?
Answer: The host macrophage viability was 119 ± 9.9%.

Question: How did the host macrophage viability turn out when CC(=O)Nc1ccc2nc(C)n(CC(=O)Nc3ccc(F)cc3)c(=O)c2c1 was run?
Answer: The host macrophage viability was 123%.

Question: COC(=O)C1=C(C)OC(N)=C(C#N)C1c1ccc(OC)cc1 (stereo not given) was tested. Which host macrophage viability did it give?
Answer: Its host macrophage viability is 113%.

Question: For CCOc1ccc(-c2cccc(NC(=O)c3ccco3)c2)nn1, which host macrophage viability is on record?
Answer: The host macrophage viability was 111%.

Question: Which host macrophage viability does the source give for Cc1cc2oc(=O)cc(-c3cc4ccccc4o3)c2cc1O here?
Answer: The host macrophage viability was 102%.

Question: Which host macrophage viability does the source give for O=C(O)CSc1nnc2c(n1)[nH]c1cccc(C(F)(F)F)c12 here?
Answer: The host macrophage viability was 134%.

Question: For CC(C)CCNC(=O)Nc1c(-c2ccncc2)[nH]c2c(Cl)cccc12, which host macrophage viability is on record?
Answer: Its host macrophage viability is 110%.

Question: How did the host macrophage viability turn out when NC(=O)c1oc2ccccc2c1NC(=O)Cc1ccc([N+](=O)[O-])cc1 was run?
Answer: The host macrophage viability was 107%.

Question: For Cn1nc(C2CC2)cc1C(=O)Nc1cccc(-c2csnn2)c1, which host macrophage viability is on record?
Answer: The host macrophage viability was 109%.
